Assay results reported in the supplement of paper PMC10849652.
This is one part of the list.

By UniProt entry, the sequences of proteins in these tests, tags left out. Where a name states a change or a piece, a line headed by the entry shows the natural chain unless it says otherwise.
UniProt P09110: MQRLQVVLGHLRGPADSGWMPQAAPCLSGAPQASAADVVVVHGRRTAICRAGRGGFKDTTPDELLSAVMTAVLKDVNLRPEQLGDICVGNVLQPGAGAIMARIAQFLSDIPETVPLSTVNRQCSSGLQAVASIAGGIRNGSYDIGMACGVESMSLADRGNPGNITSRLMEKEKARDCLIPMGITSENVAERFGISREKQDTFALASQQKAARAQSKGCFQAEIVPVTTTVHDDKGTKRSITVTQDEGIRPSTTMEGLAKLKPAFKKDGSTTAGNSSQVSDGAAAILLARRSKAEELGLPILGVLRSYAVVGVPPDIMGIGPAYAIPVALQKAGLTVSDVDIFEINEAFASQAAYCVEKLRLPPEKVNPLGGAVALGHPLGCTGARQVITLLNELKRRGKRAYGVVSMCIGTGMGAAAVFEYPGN
UniProt P78363: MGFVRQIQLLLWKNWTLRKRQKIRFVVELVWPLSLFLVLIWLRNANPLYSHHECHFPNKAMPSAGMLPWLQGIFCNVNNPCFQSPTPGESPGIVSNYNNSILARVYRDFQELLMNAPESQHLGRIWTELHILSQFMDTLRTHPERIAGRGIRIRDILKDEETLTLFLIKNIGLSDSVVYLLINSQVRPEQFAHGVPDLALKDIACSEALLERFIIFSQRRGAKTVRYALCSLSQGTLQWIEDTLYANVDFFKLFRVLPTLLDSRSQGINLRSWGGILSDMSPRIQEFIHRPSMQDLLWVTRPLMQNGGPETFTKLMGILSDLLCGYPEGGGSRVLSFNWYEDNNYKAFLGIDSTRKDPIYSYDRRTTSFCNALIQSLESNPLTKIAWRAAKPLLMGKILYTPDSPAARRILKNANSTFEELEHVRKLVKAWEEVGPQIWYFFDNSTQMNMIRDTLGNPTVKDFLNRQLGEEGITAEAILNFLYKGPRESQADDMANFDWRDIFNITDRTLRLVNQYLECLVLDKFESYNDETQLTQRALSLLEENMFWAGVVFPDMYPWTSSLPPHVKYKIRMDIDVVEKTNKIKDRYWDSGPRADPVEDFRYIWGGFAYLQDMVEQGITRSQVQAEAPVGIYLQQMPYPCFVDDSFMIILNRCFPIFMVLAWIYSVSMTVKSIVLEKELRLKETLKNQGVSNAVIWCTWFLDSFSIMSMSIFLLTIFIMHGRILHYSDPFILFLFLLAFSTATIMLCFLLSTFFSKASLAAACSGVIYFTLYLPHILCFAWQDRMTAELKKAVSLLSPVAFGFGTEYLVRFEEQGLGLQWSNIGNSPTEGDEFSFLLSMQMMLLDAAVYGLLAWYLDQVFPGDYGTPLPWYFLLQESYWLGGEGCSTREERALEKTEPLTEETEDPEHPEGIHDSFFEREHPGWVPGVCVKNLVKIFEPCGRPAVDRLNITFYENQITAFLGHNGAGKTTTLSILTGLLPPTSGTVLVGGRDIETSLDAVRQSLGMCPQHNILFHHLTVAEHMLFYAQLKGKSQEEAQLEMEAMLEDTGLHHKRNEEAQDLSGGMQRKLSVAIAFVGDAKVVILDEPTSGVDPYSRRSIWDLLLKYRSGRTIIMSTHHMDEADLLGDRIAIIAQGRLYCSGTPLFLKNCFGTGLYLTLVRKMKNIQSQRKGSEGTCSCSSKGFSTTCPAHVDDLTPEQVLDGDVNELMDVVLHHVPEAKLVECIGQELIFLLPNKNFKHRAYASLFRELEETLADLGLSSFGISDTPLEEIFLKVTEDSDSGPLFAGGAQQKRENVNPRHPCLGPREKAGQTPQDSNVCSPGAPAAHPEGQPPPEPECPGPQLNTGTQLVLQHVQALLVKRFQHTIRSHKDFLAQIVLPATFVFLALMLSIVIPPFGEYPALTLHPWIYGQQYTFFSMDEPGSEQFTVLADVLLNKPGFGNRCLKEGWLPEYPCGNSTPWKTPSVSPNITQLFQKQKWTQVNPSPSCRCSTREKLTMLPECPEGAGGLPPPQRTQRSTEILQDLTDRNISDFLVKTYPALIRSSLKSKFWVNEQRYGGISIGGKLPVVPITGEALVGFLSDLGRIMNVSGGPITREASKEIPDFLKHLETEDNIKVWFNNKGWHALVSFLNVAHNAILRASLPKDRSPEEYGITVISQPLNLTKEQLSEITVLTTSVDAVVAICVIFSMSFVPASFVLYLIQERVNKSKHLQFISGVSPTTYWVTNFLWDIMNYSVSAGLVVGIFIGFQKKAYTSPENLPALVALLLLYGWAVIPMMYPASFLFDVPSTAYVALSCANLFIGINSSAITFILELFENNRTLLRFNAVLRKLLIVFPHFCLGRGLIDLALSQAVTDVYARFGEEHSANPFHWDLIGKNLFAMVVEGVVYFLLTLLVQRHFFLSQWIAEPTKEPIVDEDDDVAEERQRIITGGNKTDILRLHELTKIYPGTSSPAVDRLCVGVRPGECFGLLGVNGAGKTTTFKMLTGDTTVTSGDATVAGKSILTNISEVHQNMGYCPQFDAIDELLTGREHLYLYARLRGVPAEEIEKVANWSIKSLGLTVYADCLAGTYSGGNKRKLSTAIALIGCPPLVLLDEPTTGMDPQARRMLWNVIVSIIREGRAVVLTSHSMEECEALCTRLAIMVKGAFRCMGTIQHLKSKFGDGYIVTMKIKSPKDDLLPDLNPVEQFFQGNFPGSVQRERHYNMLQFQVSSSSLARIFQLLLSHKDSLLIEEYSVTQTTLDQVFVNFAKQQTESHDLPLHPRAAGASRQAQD
UniProt Q9NP58: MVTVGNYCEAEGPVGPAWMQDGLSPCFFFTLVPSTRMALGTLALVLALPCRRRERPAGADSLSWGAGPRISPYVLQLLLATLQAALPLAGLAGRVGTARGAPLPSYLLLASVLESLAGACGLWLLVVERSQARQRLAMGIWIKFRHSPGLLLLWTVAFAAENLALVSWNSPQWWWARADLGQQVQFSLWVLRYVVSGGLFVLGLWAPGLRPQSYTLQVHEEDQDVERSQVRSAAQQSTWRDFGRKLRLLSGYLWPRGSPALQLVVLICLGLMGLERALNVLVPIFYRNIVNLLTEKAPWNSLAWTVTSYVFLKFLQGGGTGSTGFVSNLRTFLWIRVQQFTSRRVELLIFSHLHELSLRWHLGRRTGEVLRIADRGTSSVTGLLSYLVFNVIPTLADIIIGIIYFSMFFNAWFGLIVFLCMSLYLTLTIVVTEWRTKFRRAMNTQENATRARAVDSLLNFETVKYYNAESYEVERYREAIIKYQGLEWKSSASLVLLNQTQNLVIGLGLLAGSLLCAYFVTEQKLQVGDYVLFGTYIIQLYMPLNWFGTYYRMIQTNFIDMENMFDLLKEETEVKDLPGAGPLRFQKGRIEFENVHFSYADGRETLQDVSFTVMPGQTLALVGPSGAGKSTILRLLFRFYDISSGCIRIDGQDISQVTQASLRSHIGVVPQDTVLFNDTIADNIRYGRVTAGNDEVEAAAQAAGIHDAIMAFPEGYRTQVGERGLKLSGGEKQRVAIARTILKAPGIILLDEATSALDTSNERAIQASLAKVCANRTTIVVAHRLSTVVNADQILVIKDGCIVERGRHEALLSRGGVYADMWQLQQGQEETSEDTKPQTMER
UniProt Q9NYB9: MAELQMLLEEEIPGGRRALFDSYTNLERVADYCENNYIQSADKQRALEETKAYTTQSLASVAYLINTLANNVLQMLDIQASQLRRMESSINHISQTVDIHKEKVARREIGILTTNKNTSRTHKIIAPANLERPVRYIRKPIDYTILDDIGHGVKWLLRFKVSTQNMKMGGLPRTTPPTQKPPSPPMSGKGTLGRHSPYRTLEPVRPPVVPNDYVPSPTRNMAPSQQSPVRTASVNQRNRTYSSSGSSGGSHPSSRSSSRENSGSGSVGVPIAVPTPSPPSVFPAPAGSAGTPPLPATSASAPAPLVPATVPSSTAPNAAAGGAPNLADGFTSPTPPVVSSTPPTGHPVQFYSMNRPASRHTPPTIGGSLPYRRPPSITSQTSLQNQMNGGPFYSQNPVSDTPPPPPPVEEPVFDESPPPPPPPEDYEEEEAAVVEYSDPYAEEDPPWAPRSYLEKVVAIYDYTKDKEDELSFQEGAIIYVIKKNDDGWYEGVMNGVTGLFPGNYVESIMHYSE
UniProt Q99798: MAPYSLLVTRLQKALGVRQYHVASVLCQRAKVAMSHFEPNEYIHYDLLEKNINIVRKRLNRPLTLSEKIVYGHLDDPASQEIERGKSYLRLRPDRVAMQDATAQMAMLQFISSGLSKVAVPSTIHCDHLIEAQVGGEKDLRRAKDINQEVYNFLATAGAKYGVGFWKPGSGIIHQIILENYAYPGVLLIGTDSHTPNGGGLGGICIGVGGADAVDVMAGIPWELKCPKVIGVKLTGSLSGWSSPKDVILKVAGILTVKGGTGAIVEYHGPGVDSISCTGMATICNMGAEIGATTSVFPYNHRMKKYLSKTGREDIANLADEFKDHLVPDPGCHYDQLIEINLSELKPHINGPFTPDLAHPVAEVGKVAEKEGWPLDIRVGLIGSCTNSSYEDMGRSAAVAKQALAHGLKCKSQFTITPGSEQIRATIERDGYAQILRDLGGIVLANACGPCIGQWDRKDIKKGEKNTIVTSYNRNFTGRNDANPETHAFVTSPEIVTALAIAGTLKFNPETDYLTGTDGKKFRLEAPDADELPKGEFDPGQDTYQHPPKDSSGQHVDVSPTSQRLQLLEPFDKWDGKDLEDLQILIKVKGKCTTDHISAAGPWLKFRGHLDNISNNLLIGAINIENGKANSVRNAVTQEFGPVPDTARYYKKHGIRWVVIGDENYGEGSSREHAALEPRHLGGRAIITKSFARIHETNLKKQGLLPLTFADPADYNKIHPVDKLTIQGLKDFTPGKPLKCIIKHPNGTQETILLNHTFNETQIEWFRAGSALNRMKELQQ
UniProt P33527: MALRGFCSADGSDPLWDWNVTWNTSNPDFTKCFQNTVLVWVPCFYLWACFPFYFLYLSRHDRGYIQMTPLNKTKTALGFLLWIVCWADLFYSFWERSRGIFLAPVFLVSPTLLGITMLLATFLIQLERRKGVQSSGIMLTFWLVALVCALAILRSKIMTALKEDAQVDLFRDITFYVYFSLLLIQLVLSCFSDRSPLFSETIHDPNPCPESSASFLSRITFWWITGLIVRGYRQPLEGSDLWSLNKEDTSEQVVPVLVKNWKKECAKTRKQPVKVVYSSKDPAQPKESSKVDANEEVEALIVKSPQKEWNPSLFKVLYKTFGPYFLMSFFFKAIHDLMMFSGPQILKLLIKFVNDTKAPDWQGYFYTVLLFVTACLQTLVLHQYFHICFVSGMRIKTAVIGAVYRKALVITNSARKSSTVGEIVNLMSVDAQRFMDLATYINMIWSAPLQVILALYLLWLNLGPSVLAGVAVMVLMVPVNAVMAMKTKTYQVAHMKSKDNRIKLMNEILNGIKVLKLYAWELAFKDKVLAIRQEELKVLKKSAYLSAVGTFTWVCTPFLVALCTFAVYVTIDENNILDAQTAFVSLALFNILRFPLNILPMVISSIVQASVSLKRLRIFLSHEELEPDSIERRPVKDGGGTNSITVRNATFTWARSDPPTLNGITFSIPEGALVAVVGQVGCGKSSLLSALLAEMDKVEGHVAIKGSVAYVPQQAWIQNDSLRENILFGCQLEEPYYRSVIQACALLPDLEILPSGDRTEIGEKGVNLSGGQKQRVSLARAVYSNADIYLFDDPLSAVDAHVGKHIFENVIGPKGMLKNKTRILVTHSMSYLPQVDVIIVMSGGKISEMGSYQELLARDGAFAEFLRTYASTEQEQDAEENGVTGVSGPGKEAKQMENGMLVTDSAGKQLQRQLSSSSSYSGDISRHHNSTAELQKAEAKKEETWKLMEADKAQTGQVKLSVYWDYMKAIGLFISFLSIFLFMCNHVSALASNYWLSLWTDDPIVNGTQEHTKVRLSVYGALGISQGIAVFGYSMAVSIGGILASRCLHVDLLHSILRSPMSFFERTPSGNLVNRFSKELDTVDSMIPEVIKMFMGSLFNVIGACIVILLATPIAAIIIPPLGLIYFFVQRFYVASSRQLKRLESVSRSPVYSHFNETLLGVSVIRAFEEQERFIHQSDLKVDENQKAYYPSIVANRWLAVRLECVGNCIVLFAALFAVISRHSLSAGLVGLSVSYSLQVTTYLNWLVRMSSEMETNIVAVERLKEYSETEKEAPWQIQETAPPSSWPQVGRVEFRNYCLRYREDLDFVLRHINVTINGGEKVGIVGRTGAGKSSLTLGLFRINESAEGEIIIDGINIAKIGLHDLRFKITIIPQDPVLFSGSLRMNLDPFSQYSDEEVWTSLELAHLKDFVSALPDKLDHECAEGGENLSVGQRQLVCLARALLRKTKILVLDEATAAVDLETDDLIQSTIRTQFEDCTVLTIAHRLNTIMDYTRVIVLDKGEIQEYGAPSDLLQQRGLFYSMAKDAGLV

Assays:
Assay in all cases: log2 fold change, soluble protein after heating vs DMSO (PISA); higher = thermal stabilisation; K562 lysate, 10 uM; active = over 0.2 and 3.5 SD of the protein, either way, in both replicates (recomputed)
erlotinib = compound: C#Cc1cccc(Nc2ncnc3cc(OCCOC)c(OCCOC)cc23)c1 [erlotinib]
In short: (§1)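 Quantification was by TMTpro 16plex LC-MS/MS with equalised channel sums, applied to the supernatant after 21,000xg for 90 min. Samples were crude K562 extract at 1 mg/mL protein in PBS pH 7.4 with 1 mM MgCl2, treated with 10 μM compound for 30 min, heated for 3 min across 48°C-58°C, pooled and brought to 0.5% NP-40 at 4°C. Values are log-two fold changes in thermal stability relative to solvent controls, from duplicates.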

[1] = compound: C/C(=N\NC(=O)C1=CC(=CC=C1)S(=O)(=O)N2CCOCC2)/C3=C(C=CC(=C3)Cl)O
In short: as §1

[2] = compound: C1=CC(=CC=C1C2=NC3=C(N2)C=C(C=C3)C(=O)N)OC4=CC=C(C=C4)Cl
In short: as §1

[3] = compound: C1=CC2=C(C=CC(=C2)/C=C\3/C(=O)NC(=NCC4=CC=CS4)S3)N=C1
In short: as §1

[4] = compound: C1=CC2=NC=CN=C2C=C1/C=C/3\C(=O)NC(=O)S3
In short: as §1

[5] = compound: C1=CC=C(C=C1)C2=NC(=C(N2)C3=CC=NC=C3)C4=CC(=C(C=C4)Cl)O
In short: as §1

[6] = compound: C1=CC=C2C(=C1)C3=NNC4=CC=CC(=C43)C2=O
In short: as §1

[7] = compound: C1CCN(C1)C(=O)NC2=CC=CC(=C2)NC3=NC=C(C(=N3)NCCC4=CN=CN4)Br
In short: as §1

[8] = compound: C1CN(CCC1(CC2=CC=C(C=C2)Cl)N)C3=NC=NC4=C3C=CN4
In short: as §1

IRAK-1-4 Inhibitor I = compound: C1COCCN1CCN2C3=CC=CC=C3N=C2NC(=O)C4=CC(=CC=C4)[N+](=O)[O-] [IRAK-1-4 Inhibitor I]
In short: as §1

ibrutinib = compound: C=CC(=O)N1CCC[C@@H](n2nc(-c3ccc(Oc4ccccc4)cc3)c3c(N)ncnc32)C1 [ibrutinib]
In short: as §1

[9] = compound: CC(=O)c1cnc2ccc(-c3cc(Cl)c(O)c(Cl)c3)nc2c1N[C@H]1CC[C@H](CN(C)C)CC1
In short: as §1

ralimetinib = compound: CC(C)(C)Cn1c(N)nc2ccc(-c3[nH]c(C(C)(C)C)nc3-c3ccc(F)cc3)nc21 [ralimetinib]
In short: as §1

[10] = compound: CC(C)(O)CC(=O)NCCn1ccc2ncnc(Nc3ccc(Oc4cccc(C(F)(F)F)c4)c(Cl)c3)c21
In short: as §1

[11] = compound: CC(C)C1=C2N=C(C=C(N2N=C1)NCC3=CC=CC=C3)NCCCCCCN
In short: as §1

[12] = compound: CC1=C(C(CC(=O)N1)C2=CC=C(C=C2)C(F)(F)F)C(=O)NC3=C(C=C4C(=C3)C=NN4)F
In short: as §1

[13] = compound: CC1=C(C2=C(C=C1)C(=O)C3=CC=CC=C3N2CCCN)C
In short: as §1

[14] = compound: CC1=C(C=C(C=C1)NC(=O)C2=CC(=CC=C2)C(C)(C)C#N)NC3=CC4=C(C=C3)N=CN(C4=O)C
In short: as §1

[15] = compound: CC1=C(C=C(C=C1)NC(=O)C2=CC(=CC=C2)N(C)C)NC(=O)C3=CC=C(C=C3)O
In short: as §1

[16] = compound: CC1=CC=C(C=C1)SC2=C3C=C(SC3=CN=C2)C(=O)N
In short: as §1

Measured: log2 fold change

AAR2 (UniProt Q9Y312)
inactive: erlotinib 0.033 | [1] 0.002 | [2] -0.003 | [3] -0.027 | [4] 0.002 | [5] -0.029 | [6] -0.008 | [7] -0.021 | [8] -0.012 | IRAK-1-4 Inhibitor I 0.028 | ibrutinib 0.024 | [9] -0.005 | ralimetinib -0.007 | [10] -0.033 | [11] -0.008 | [12] -0.005 | [13] -0.022 | [14] -0.021 | [15] 0.012 | [16] 0

ACAA2 (UniProt P42765)
inactive: erlotinib -0.012 | [1] -0.018 | [2] 0.033 | [3] -0.027 | [4] -0.008 | [5] 0.005 | [6] 0.034 | [7] -0.001 | [8] -0.008 | IRAK-1-4 Inhibitor I 0.029 | ibrutinib 0.026 | [9] -0.006 | ralimetinib 0.011 | [10] -0.016 | [11] 0.009 | [12] -0.012 | [13] -0.024 | [14] -0.032 | [15] 0.011 | [16] -0.017

ACADSB (UniProt P45954)
inactive: erlotinib -0.016 | [1] 0.033 | [2] -0.011 | [3] -0.043 | [4] 0.012 | [5] -0.074 | [6] -0.048 | [7] 0.006 | [8] -0.003 | IRAK-1-4 Inhibitor I -0.024 | ibrutinib 0.003 | [9] 0.015 | ralimetinib -0.061 | [10] -0.074 | [11] -0.092 | [12] -0.005 | [13] -0.242 | [14] 0.005 | [15] 0.019 | [16] -0.023

ABHD11 (UniProt Q8NFV4)
inactive: erlotinib -0.064 | [1] -0.049 | [2] 0.001 | [3] 0.057 | [4] -0.008 | [5] 0.171 | [6] 0.011 | [7] -0.047 | [8] 0.015 | IRAK-1-4 Inhibitor I -0.014 | ibrutinib -0.012 | [9] 0.057 | ralimetinib -0.04 | [10] -0.048 | [11] -0.2 | [12] 0.018 | [13] -0.241 | [14] -0.013 | [15] 0 | [16] -0.017

ACAA1 (UniProt P09110)
inactive: erlotinib 0.03 | [1] -0.455 | [2] 0.041 | [3] 0.015 | [4] 0.03 | [5] -0.036 | [6] 0.016 | [7] 0.014 | [8] -0.024 | IRAK-1-4 Inhibitor I -0.006 | ibrutinib 0.046 | [9] -0.012 | ralimetinib -0.054 | [10] -0.003 | [11] 0 | [12] -0.02 | [13] -0.016 | [14] 0.044 | [15] 0.001 | [16] -0.007

ABCA4 (UniProt P78363)
inactive: erlotinib 0.065 | [1] -0.014 | [2] 0.143 | [3] -0.038 | [4] -0.042 | [5] -0.015 | [6] -0.016 | [7] 0.032 | [8] 0.065 | IRAK-1-4 Inhibitor I 0.059 | ibrutinib 0.028 | [9] 0.067 | ralimetinib -0.008 | [10] -0.072 | [11] -0.055 | [12] -0.054 | [13] -0.109 | [14] 0.119 | [15] 0.01 | [16] -0.033

ABCB6 (UniProt Q9NP58)
inactive: erlotinib 0.039 | [1] -0.084 | [2] -0.011 | [3] -0.005 | [4] -0.018 | [5] -0.002 | [6] -0.045 | [7] -0.029 | [8] 0.026 | IRAK-1-4 Inhibitor I -0.047 | ibrutinib 0.022 | [9] 0.04 | ralimetinib 0.01 | [10] -0.015 | [11] -0.047 | [12] -0.023 | [13] -0.082 | [14] 0.02 | [15] -0.042 | [16] -0.011

ABRAXAS1 (UniProt Q6UWZ7)
inactive: erlotinib -0.022 | [1] -0.023 | [2] 0.028 | [3] 0.047 | [4] -0.087 | [5] 0.075 | [6] -0.041 | [7] -0.024 | [8] 0.128 | IRAK-1-4 Inhibitor I -0.081 | ibrutinib 0.006 | [9] -0.002 | ralimetinib 0.088 | [10] 0.012 | [11] -0.002 | [12] 0.02 | [13] 0.012 | [14] 0.031 | [15] 0.002 | [16] -0.009

ABCB8 (UniProt Q9NUT2)
inactive: erlotinib -0.004 | [1] -0.042 | [2] -0.025 | [3] 0.021 | [4] 0.034 | [5] -0.021 | [6] 0.022 | [7] -0.06 | [8] 0.015 | IRAK-1-4 Inhibitor I 0.041 | ibrutinib 0.008 | [9] 0.014 | ralimetinib 0.02 | [10] -0.046 | [11] 0.042 | [12] 0.062 | [13] -0.05 | [14] -0.028 | [15] 0.014 | [16] -0.027

Reprinted at random: two records from the list.
ABHD11 (UniProt Q8NFV4)
inactive: erlotinib -0.064 | [1] -0.049 | [2] 0.001 | [3] 0.057 | [4] -0.008 | [5] 0.171 | [6] 0.011 | [7] -0.047 | [8] 0.015 | IRAK-1-4 Inhibitor I -0.014 | ibrutinib -0.012 | [9] 0.057 | ralimetinib -0.04 | [10] -0.048 | [11] -0.2 | [12] 0.018 | [13] -0.241 | [14] -0.013 | [15] 0 | [16] -0.017

ACAA2 (UniProt P42765)
inactive: erlotinib -0.012 | [1] -0.018 | [2] 0.033 | [3] -0.027 | [4] -0.008 | [5] 0.005 | [6] 0.034 | [7] -0.001 | [8] -0.008 | IRAK-1-4 Inhibitor I 0.029 | ibrutinib 0.026 | [9] -0.006 | ralimetinib 0.011 | [10] -0.016 | [11] 0.009 | [12] -0.012 | [13] -0.024 | [14] -0.032 | [15] 0.011 | [16] -0.017

Next part:

ACLY (UniProt P53396)
inactive: erlotinib -0.006 | [1] 0.037 | [2] -0.018 | [3] -0.013 | [4] -0.011 | [5] -0.016 | [6] -0.018 | [7] 0.002 | [8] 0.019 | IRAK-1-4 Inhibitor I -0.01 | ibrutinib -0.002 | [9] 0.003 | ralimetinib 0.001 | [10] -0.011 | [11] 0.02 | [12] -0.02 | [13] 0.014 | [14] -0.014 | [15] -0.012 | [16] 0.054

ABI2 (UniProt Q9NYB9)
inactive: erlotinib -0.02 | [1] -0.001 | [2] -0.022 | [3] -0.011 | [4] -0.002 | [5] 0.051 | [6] -0.008 | [7] 0.005 | [8] 0.015 | IRAK-1-4 Inhibitor I -0.009 | ibrutinib 0.055 | [9] 0.016 | ralimetinib 0.03 | [10] -0.002 | [11] -0.002 | [12] 0.015 | [13] 0.039 | [14] -0.069 | [15] -0.034 | [16] 0.089

ABCE1 (UniProt P61221)
inactive: erlotinib -0.019 | [1] -0.007 | [2] 0.027 | [3] 0.014 | [4] -0.003 | [5] -0.01 | [6] 0.038 | [7] 0.011 | [8] -0.006 | IRAK-1-4 Inhibitor I 0.151 | ibrutinib -0.033 | [9] 0.023 | ralimetinib -0.008 | [10] -0.005 | [11] -0.016 | [12] -0.026 | [13] 0.017 | [14] -0.009 | [15] -0.008 | [16] -0.002

ACO2 (UniProt Q99798)
inactive: erlotinib -0.019 | [1] -0.044 | [2] 0.026 | [3] -0.032 | [4] -0.008 | [5] -0.016 | [6] -0.003 | [7] -0.022 | [8] 0.04 | IRAK-1-4 Inhibitor I 0.026 | ibrutinib -0.007 | [9] 0.011 | ralimetinib -0.006 | [10] -0.031 | [11] -0.007 | [12] -0.017 | [13] 0.016 | [14] -0.004 | [15] -0.012 | [16] -0.005

AAAS (UniProt Q9NRG9)
inactive: erlotinib 0.021 | [1] -0.119 | [2] -0.036 | [3] -0.014 | [4] -0.008 | [5] -0.01 | [6] -0.084 | [7] -0.001 | [8] 0.061 | IRAK-1-4 Inhibitor I 0.019 | ibrutinib -0.027 | [9] 0.022 | ralimetinib 0.007 | [10] 0.024 | [11] -0.004 | [12] -0.012 | [13] -0.009 | [14] -0.031 | [15] 0.023 | [16] -0.001

ABHD5 (UniProt Q8WTS1)
inactive: erlotinib 0.009 | [1] 0.042 | [2] -0.035 | [3] -0.036 | [4] -0.064 | [5] 0.003 | [6] -0.135 | [7] -0.084 | [8] -0.046 | IRAK-1-4 Inhibitor I -0.048 | ibrutinib -0.028 | [9] 0.049 | ralimetinib -0.013 | [10] -0.072 | [11] 0.032 | [12] 0.037 | [13] -0.026 | [14] 0.029 | [15] 0.01 | [16] -0.034

ABCC1 (UniProt P33527)
inactive: erlotinib 0.002 | [1] 0.03 | [2] -0.027 | [3] 0.004 | [4] 0.016 | [5] -0.008 | [6] -0.003 | [7] -0.009 | [8] 0.038 | IRAK-1-4 Inhibitor I 0.023 | ibrutinib 0.052 | [9] 0.111 | ralimetinib -0.014 | [10] -0.021 | [11] 0.018 | [12] 0.006 | [13] -0.012 | [14] 0.015 | [15] -0.006 | [16] -0.042
